The record followed here is paper PMC5469853.

Protein sequences, listed by entry. Tags and fused reporters are not part of them. Lines headed by an entry give the natural chain unless they say otherwise; changes in a name come on top. Residues count along the entry.
UniProt P02769, residues 25-607: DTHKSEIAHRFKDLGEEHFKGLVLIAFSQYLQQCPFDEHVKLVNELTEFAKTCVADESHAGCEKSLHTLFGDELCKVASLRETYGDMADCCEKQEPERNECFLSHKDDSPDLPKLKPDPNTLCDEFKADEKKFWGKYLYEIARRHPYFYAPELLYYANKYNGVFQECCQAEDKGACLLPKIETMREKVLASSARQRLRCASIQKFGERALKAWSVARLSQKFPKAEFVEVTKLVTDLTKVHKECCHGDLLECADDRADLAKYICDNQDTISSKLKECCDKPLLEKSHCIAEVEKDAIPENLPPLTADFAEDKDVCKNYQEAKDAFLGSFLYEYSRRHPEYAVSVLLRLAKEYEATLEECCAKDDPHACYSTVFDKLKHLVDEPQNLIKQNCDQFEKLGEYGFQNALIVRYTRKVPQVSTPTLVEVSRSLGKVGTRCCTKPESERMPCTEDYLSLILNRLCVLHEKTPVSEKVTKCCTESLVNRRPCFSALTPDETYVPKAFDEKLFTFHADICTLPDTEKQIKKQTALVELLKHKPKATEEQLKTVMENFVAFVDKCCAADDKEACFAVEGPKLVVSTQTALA
UniProt P17301: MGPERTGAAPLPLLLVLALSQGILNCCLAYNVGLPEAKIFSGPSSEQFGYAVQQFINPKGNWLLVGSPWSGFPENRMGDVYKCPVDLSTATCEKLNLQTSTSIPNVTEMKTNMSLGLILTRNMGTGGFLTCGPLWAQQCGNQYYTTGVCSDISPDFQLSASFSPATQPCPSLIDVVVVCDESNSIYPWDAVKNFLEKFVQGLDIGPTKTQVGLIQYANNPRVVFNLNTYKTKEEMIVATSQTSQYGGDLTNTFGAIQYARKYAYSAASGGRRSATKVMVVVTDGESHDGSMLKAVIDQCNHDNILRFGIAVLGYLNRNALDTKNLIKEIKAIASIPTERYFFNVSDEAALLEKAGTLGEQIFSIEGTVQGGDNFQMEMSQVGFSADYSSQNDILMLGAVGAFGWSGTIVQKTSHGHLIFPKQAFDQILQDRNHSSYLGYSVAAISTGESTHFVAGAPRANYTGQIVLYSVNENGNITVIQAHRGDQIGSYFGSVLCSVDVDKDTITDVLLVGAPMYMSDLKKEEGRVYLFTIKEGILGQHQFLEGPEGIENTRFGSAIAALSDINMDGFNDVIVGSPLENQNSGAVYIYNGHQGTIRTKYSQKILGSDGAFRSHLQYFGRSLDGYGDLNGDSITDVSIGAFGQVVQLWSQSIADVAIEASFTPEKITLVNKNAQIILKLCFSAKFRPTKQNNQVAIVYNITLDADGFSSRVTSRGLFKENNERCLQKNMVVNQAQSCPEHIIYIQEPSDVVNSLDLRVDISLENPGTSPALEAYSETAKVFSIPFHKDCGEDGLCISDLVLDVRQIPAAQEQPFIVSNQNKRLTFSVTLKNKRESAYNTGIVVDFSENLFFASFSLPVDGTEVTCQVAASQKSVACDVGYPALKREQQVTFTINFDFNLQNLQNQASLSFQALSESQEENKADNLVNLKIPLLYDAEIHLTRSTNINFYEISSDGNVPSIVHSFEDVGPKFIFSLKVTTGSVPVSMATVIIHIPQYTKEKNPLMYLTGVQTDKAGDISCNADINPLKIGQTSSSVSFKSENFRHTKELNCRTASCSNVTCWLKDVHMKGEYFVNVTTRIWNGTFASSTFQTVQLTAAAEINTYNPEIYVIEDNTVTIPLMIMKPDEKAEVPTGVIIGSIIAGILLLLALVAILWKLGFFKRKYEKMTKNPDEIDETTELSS

These are yes or no findings as the source states them, for the method shown.

The target in the test is BSA (bovine (from the name BSA)) (UniProt P02769). Briefly: cell adhesion and spreading on a coated surface; plates coated with EV1 (2.5 μg/cm2), type I collagen (5 μg/cm2) or 0.1% BSA, blocked with 0.1% BSA; cells in serum free DMEM plated on the wells; phase contrast images at 0-60 min; only the target purified.

Consider “α2β1 integrin with the loss-of-function mutation E336A in the α2 subunit (from UniProt P17301 30-1181; P05556 21-798) (receptor)”, for which the binding result is listed as “no binding”.
